From patent publication US4672054A, “Process for the preparation of angiotensin-II analogues substituted in the 1-, 5- and 8- positions” (Richter Gedeon Vegyeszeti Gyar Rt., priority 1984, dated 1987)
Part of at least one peptide drawing is inferred or uncertain, most often the ends. Where a SMILES comes first, the peptide text is derived from it. [ ]: non-standard residue; d: D form. Chg = N[C@H](C(=O)O)C1CCCCC1; Lac = C[C@H](O)C(=O)O; Sar = CNCC(=O)O

System: awake rats
Assay: hypotensive activity in vivo on awake rats (modified method by Pals), AII challenge
Design: species or system rat
Settings: peptide 1 mg/kg subcutaneously, 1.0 μg/kg AII intravenously from the fifth minute over three hours
Experimental: The hypotensive activity of the new compounds was tested in vivo on awake rats, according to the modified method by Pals [Circ. Res. 29, 664 (1971)].
The results are illustrated in FIG. 1.
At first a dose--effect curve was registered for AII on rats. The peptides were administered subcutaneously, in 1 mg/kg doses. In the fifth minute after administration and repeatedly in the next three hours 1.0 μg/kg of AII was added intravenously. The statistical evalulation was performed by variancy analysis.

Structure (SMILES): CNCC(=O)N[C@@H](CCCNC(=N)N)C(=O)N[C@H](C(=O)N[C@@H](Cc1ccc(O)cc1)C(=O)N[C@H](C(=O)N[C@@H](Cc1c[nH]cn1)C(=O)N1CCC[C@H]1C(=O)O[C@@H](C)C(=O)O)C1CCCCC1)C(C)C [Sar^1, Chg^5, Lac^8 --AII] (H-[Sar]RVY[Chg]HP[Lac]-OH)
- duration of hypotensive activity compared with Saralasin (FIG. 1): signicantly more prolonged hypotensive activity than Saralasin
